PubChem BioAssay AID743454, Peter MacCallum Cancer Centre, 2014
Shown is an unselected part of about 18,000 reagents tested. 450 of all reagents (2.5%) were called active. 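Single biological run; no consistent viability z cut-off exists, so the class columns, not z-scores, define the calls.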

Purpose: 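Search for knock-downs that restore vorinostat killing in resistant colon cancer cells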 (primary screen)
Cells: human HCT116-VR colon cancer cells, selected for vorinostat resistance
Reagents: siRNA pool against human genes, 40 nM siRNA pool
Duration: vorinostat for 24 h, read-out about 72 h after transfection
Challenge: vorinostat at 2.5 µM final
Detection: 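Cell viability by CellTiter-Fluor and caspase 3/7 activity by luminescence, each scaled to mock wells per plate, duplicates averaged, then robust z-scored over all plates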
Reading the numbers: viability robust z-score: higher = more viable cells than screen typical; caspase robust z-score: higher = more caspase 3/7 activity than screen typical
Call rule: 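Hits are knock-downs in viability class RV1/RV2 or caspase class CA1/CA2, excluding ones that killed cells in the no-drug cell-count arm; hits then retested with single siRNAs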

| target gene | viability hit class | caspase hit class | viability robust z-score | caspase robust z-score | Outcome |
| --- | --- | --- | --- | --- | --- |
| GABRE | no change | no change | -0.48 | -0.86 | inactive |
| ZDHHC24 | no change | no change | 0.28 | -0.42 | inactive |
| SOHLH1 | no change | no change | 1.49 | 2.04 | inactive |
| NHSL3 | no change | no change | 0.23 | -1 | inactive |
| GJA4 | no change | no change | 0.07 | 2.44 | inactive |
| CCDC71 | no change | no change | 1.23 | 0.02 | inactive |
| C12orf71 | no change | no change | -0.64 | 2.29 | inactive |
| PSMC6 | no change | no change | -3.82 | -0.37 | inactive |
| IFT122 | no change | no change | 0.07 | -0.21 | inactive |
| ALKBH7 | no change | no change | -1.21 | 0.96 | inactive |
| PRKDC | no change | no change | -0.11 | 1.27 | inactive |
| FSCB | no change | no change | 0.3 | 2.18 | inactive |
| NIP7 | no change | no change | -2.09 | -0.82 | inactive |
| NCOA2 | no change | no change | 0.78 | 0.1 | inactive |
| LCE2A | no change | CA2 (caspase activation) | -0.92 | 5.92 | active |
| DROSHA | no change | no change | -0.17 | -1.07 | inactive |
| PGM3 | no change | no change | 1.98 | 0.15 | inactive |
| DND1 | no change | no change | 0.54 | 0.16 | inactive |
| CDK17 | no change | no change | -0.06 | 0.28 | inactive |
| LRRIQ4 | no change | no change | 0.1 | 0.94 | inactive |
| SMIM3 | no change | no change | 1.29 | -0.28 | inactive |
| TAS2R14 | no change | no change | -3.75 | 1.15 | inactive |
| AIRIM | no change | no change | 0.44 | 0.02 | inactive |
| TMEM183BP | no change | no change | 0.15 | -0.24 | inactive |
| RAB33B | no change | no change | -0.36 | 2.29 | inactive |
| AMPD3 | no change | no change | 0.6 | -0.73 | inactive |
| SHROOM2 | no change | no change | 0.42 | 0.62 | inactive |
| HSPB1 | no change | no change | -0.55 | 1.9 | inactive |
| COA5 | no change | no change | -0.62 | 3.74 | inactive |
| ALPG | no change | no change | -1.15 | -0.62 | inactive |
| CFH | no change | no change | 1.68 | -0.06 | inactive |
| GORASP2 | no change | no change | 0.54 | -0.68 | inactive |
| DCUN1D2 | no change | CA1 (caspase activation) | -0.36 | 8.32 | active |
| CD33 | no change | no change | 0.46 | 0.8 | inactive |
| DCST2 | no change | no change | -0.12 | 0.07 | inactive |
| IFIH1 | no change | no change | 0.25 | -1.05 | inactive |
| AASDHPPT | no change | no change | 0.02 | -0.02 | inactive |
| CNOT4 | no change | no change | -1.37 | -0.75 | inactive |
| MADD | no change | no change | 1.19 | 0.68 | inactive |
| PCYT1B | no change | no change | -0.44 | -0.01 | inactive |
| OLIG1 | no change | no change | -1.11 | 1.82 | inactive |
| GTF2H5 | no change | no change | -0.2 | -0.26 | inactive |
| SUGP1 | no change | no change | -2.67 | 0.9 | inactive |
| SULT1A4 | no change | no change | 0.95 | 1.23 | inactive |
| ZNF451 | no change | no change | -1.4 | 0.2 | inactive |
| TCERG1 | no change | no change | -0.44 | 0.62 | inactive |
| HDHD2 | no change | no change | 0.38 | 0.12 | inactive |
| UBE2Q2 | no change | no change | -0.04 | 0.8 | inactive |
| KRT80 | no change | no change | -1.01 | 0.46 | inactive |
| HHIP | no change | no change | -0.22 | 0.04 | inactive |
| STK36 | no change | no change | 0.67 | 0.77 | inactive |
| ALYREF | no change | CA2 (caspase activation) | -0.82 | 5.8 | active |
| CA13 | no change | no change | -0.65 | 1.15 | inactive |
| SPPL2A | no change | no change | 0.42 | 0.36 | inactive |
| ESYT3 | no change | no change | -0.48 | -0.36 | inactive |
| PIGG | no change | no change | 1.52 | -0.49 | inactive |
| ZSCAN20 | no change | no change | -0.65 | -0.3 | inactive |

A stretch of the results above, for reference:
| target gene | viability hit class | caspase hit class | viability robust z-score | caspase robust z-score | Outcome |
| --- | --- | --- | --- | --- | --- |
| CA13 | no change | no change | -0.65 | 1.15 | inactive |
| SPPL2A | no change | no change | 0.42 | 0.36 | inactive |
| ESYT3 | no change | no change | -0.48 | -0.36 | inactive |
| PIGG | no change | no change | 1.52 | -0.49 | inactive |
| ZSCAN20 | no change | no change | -0.65 | -0.3 | inactive |
